Values from PubChem BioAssay AID1259424 (University of Nebraska Medical Center, 2018).
This is a random part of about 14,000 reagents. 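Higher correlation or smaller distance means closer resemblance to KSR1 loss; control wells, including KSR1 knockdowns, recur on many plates.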 The numbers tell different reagents against one gene apart. Not given: the time to read-out.

Screen: 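Seek colon cancer survival genes behaving like KSR1, using a six-gene signature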 (primary screen)
System: human HCT116 colon cancer cells
Reagent: siRNA pool against human genes, 50 nM
Measured: 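Six signature mRNAs by branched-DNA multiplex assay, scaled to two housekeeping genes and non-targeting median, log2; matched to mean KSR1 knockdown profile by Pearson correlation and euclidean distance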
Direction: mean correlation with KSR1 profile and KSR1 correlation: higher = expression change more like KSR1 knockdown; mean distance from KSR1 profile: higher = expression change less like KSR1 knockdown

no.	gene	reagent no.	mean correlation with KSR1 profile	mean distance from KSR1 profile	KSR1 correlation, replicate 1	KSR1 correlation, replicate 2	KSR1 correlation, replicate 3
1	RGS5	1	0.711	1.61	0.781	0.749	0.698
2	PGK2	1	0.271	1.7	0.577	0.0551	0.317
3	COPS8	1	0.0291	2.15	0.128	-0.16	0.272
4	DISC1	1	-0.247	2.14	-0.195	-0.342	-0.496
5	DAZAP2	1	0.68	1.15	0.695	0.509	0.674
6	SETBP1	1	-0.447	2.62	-0.241	-0.562	-0.355
7	IL18	1	0.212	1.23	-0.0479	0.205	0.253
8	CAPN7	1	-0.602	1.45	-0.734	-0.475	-0.404
9	SYN2	1	-0.073	1.22	-0.021	0.0687	-0.138
10	TTYH3	1	-0.437	2.04	-0.627	-0.611	0.0749
11	GRIA4	1	0.0387	1.2	0.0769	0.00199	-0.0433
12	GRM6	1	0.667	2.23	0.461	0.706	0.661
13	OBSCN	1	0.353	1.97	0.458	0.269	0.393
14	OBSCN	2	-0.0475	3.48	-0.211	-0.0531	-0.0516
15	OBSCN	3	0.061	1.56	0.164	0.196	-0.0028
16	IL31RA	1	-0.337	1.77	0.149	-0.347	-0.531
17	ZNF521	1	0.277	1.49	0.393	0.0488	0.232
18	SLFN12	1	-0.243	3.33	-0.14	-0.353	-0.177
19	HROB	1	-0.0745	2.64	-0.0574	-0.222	-0.218
20	LMO3	1	-0.00977	2.54	0.0123	-0.287	-0.000368
21	MRPS33	1	-0.307	1.92	-0.44	-0.291	-0.343
22	NHEJ1	1	0.562	1.2	0.628	0.843	0.237
23	LINC03124	1	-0.151	1.82	-0.163	-0.268	-0.224
24	XRN1	1	0.646	1.37	0.543	0.813	0.521
25	LRP12	1	-0.0561	2.41	0.0432	0.0418	-0.317
26	GSN	1	-0.086	3.1	0.0988	0.0137	-0.191
27	TEX28	1	-0.687	2.19	-0.56	-0.629	-0.758
28	FGF22	1	0.0114	3.38	-0.0661	-0.133	-0.0939
29	ADAMTS12	1	-0.0673	2.15	-0.0733	0.0634	-0.382

Targets listed so far whose gene name starts with O or o:
gene	reagent no.	mean correlation with KSR1 profile	mean distance from KSR1 profile	KSR1 correlation, replicate 1	KSR1 correlation, replicate 2	KSR1 correlation, replicate 3
OBSCN	1	0.353	1.97	0.458	0.269	0.393
OBSCN	2	-0.0475	3.48	-0.211	-0.0531	-0.0516
OBSCN	3	0.061	1.56	0.164	0.196	-0.0028

Next results follow.
no.	gene	reagent no.	mean correlation with KSR1 profile	mean distance from KSR1 profile	KSR1 correlation, replicate 1	KSR1 correlation, replicate 2	KSR1 correlation, replicate 3
30	POLDIP3	1	0.622	1.31	0.372	0.462	0.775
31	ARMC5	1	-0.168	2.89	-0.111	-0.0409	-0.302
32	GAS7	1	-0.679	1.28	-0.626	-0.709	-0.667
33	RBM41	1	-0.119	2.02	-0.0515	-0.126	-0.392
34	JRKL	1	0.865	1.63	0.872	0.78	0.854
35	FCRL2	1	0.528	3.7	0.504	0.481	0.52
36	SEM1	1	-0.741	3.06	-0.689	-0.757	-0.788
37	SLC22A13	1	-0.246	2.08	-0.385	0.315	-0.251
38	LCMT2	1	-0.103	1.41	0.0628	-0.392	0.175
39	CHERP	1	0.24	2.08	0.0944	0.663	-0.303
40	PTTG1	1	0.587	1.5	0.359	0.832	0.445
41	GATAD2A	1	-0.675	1.72	-0.611	-0.643	-0.586
42	CXCL11	1	-0.037	1.63	0.212	-0.108	-0.184
43	PEX1	1	-0.213	7.21	-0.37	-0.0451	-0.264
44	ATG2B	1	-0.317	1.38	-0.436	0.0406	-0.42
45	FOXH1	1	0.18	1.42	0.126	0.589	0.188
46	TECPR1	1	-0.094	2.52	-0.00862	-0.192	0.0568
47	BCL2L12	1	0.435	2.39	0.358	0.251	0.428
48	ATP10A	1	-0.657	2.07	-0.902	-0.396	-0.221
49	PCDH17	1	0.979	1.59	0.939	0.55	0.839
50	TENT4A	1	-0.0215	2.05	-0.127	0.17	-0.355
